In paper PMC10393992 (Nature Communications, 2023):
Changes are numbered by the printed parent chain. Results are given in words; binding and its absence hold for the method and conditions named. In cells and extracts the contact can be indirect. Some results given as binding are weak or reduced against the parent protein; the word gives no strength. Where a sequence is shown, tags or fusion partners need not be part of it.

Chains of the proteins cited; added tags and fusions are not shown.
UniProt P60953: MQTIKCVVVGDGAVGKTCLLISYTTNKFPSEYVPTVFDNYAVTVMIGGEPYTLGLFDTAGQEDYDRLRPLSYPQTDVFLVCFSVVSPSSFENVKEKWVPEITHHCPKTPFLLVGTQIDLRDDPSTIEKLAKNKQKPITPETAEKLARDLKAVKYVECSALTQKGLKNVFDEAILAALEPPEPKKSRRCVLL

What was measured:
Experiment in all cases: pull-down; hexa-histidine-tagged recombinant protein (~5 ug) on Ni-NTA agarose mixed with cell lysate containing EGFP-Cdc42 pre-incubated with GTPgamma-S or GDP and 20 mM EDTA (30 C, 15 min); 4 C, 25 min; eluted with 400 mM imidazole; western blot; the results are told for the GTPgamma-S-loaded …; only the target purified
[1] = biological target: T1, hexa-histidine-tagged CIP4-FDR(4S) (Mus musculus) (UniProt Q8CJ53)
T1 sequence: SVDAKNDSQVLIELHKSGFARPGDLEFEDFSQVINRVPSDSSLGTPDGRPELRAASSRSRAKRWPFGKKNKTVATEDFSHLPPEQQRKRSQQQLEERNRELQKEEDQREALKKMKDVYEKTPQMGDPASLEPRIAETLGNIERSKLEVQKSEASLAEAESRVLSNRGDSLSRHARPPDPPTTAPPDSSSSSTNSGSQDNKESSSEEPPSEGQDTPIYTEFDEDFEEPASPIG

[2] = biological target: T2, hexa-histidine-tagged CIP4-FDR (Mus musculus) (UniProt Q8CJ53)
T2 sequence: T1 sequence with S90L, S144L, S151Y, S154W

[3] = biological target: T3, hexa-histidine-tagged CIP4-FDR(IST) (Mus musculus) (UniProt Q8CJ53)
T3 sequence: T1 sequence with S90L, M124I, G125S, D126T, S144L, S151Y, S154W

Measured: binding

EGFP-fused Cdc42 (from UniProt P60953 1-191)
binds: all assays above
